Experimental data published in patent US11166958B2, “4-pyrazin-2-ylmethyl-morpholine derivatives and the use thereof as medicament” (Boehringer Ingelheim International GmbH, priority 2018, dated 2021).
At least one compound was matched to its structure with a doubt left.

The chains behind the UniProt entries cited, without tags or fusion partners.
UniProt Q9UQD0, whole entry: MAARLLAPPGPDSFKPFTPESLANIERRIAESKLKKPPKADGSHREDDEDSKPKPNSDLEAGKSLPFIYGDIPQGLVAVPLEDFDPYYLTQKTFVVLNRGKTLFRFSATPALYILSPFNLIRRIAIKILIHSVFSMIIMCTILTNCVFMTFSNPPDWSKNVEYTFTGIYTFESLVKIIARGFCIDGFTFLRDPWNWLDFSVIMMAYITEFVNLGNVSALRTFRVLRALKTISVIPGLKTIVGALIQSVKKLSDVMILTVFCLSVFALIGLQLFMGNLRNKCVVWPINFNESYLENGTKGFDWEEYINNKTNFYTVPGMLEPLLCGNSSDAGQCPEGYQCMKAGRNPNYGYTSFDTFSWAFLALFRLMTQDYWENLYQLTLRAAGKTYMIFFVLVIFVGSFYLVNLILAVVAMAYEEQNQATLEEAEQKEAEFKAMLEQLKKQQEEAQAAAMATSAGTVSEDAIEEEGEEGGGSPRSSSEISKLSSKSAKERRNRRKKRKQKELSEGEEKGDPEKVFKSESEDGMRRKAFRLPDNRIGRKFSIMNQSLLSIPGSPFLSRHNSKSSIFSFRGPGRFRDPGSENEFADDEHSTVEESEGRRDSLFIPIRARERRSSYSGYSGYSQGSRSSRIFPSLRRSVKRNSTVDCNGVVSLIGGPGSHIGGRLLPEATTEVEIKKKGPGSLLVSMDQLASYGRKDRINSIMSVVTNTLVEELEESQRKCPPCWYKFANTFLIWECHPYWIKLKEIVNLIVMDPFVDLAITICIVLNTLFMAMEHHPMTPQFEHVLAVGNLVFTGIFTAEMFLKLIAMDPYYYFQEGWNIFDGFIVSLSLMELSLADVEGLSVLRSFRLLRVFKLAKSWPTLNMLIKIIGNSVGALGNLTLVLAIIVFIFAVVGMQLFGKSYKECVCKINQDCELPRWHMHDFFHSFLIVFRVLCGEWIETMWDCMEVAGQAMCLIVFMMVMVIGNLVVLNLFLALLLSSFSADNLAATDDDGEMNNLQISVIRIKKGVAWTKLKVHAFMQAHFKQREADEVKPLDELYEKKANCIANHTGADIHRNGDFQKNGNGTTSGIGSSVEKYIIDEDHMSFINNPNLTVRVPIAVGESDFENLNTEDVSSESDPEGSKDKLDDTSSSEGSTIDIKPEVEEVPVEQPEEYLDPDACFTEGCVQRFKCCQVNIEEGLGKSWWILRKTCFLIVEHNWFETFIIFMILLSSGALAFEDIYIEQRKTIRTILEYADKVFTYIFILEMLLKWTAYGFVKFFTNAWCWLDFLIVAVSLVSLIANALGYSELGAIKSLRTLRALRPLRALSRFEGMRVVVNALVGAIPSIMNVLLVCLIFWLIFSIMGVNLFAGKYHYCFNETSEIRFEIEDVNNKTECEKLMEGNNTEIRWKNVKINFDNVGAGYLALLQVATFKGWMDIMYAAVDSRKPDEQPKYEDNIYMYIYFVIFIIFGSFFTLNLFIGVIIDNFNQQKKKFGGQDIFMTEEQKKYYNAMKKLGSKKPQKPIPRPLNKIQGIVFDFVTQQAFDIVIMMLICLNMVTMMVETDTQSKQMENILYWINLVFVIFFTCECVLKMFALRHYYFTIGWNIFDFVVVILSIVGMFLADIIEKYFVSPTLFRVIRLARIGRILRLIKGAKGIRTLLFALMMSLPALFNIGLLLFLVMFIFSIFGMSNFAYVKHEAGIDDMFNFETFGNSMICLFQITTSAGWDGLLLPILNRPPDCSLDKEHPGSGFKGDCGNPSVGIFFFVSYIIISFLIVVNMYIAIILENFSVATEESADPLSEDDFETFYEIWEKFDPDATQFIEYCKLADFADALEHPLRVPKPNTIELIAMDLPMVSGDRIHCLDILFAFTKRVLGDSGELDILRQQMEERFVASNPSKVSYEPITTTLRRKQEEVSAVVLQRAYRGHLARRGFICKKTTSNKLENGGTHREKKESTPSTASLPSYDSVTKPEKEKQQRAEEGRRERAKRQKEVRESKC

What was measured:
[1] = target: T1, Nav1.6 (Homo sapiens (Human), UniProt Q9UQD0); details: reported in WO2015/130905; cited from earlier work
[2] = target: T1, Nav1.6; assay: Nav1.6 inhibition, IonWorks Quattro electrophysiology; type: cell-based; details: for significant inhibition of the Nav 1.6 channel: at 1 and 5 μM
Protocol: IonWorks Quattro electrophysiological platform
The compounds were prepared in DMSO at 300× the final assay concentrations of 1 and 5 μM.
The 300× DMSO stock solutions were transferred into assay plates where 2 μl per well of each 300× stock solution were placed. All assay plates were stored at −80° C. until the day of assay.
On the day of the assay, the appropriate assay plate was thawed at room temperature, centrifuged, and 198 μl of external recording solution was added and mixed thoroughly. This provided a 1:100 dilution. A further 1:3 dilution occurred upon addition to the cells in the IonWorks Quattro electrophysiological platform, giving a 1:300 dilution in total. On each assay plate, at least 8 wells were reserved for vehicle control (0.3% DMSO) and at least 8 wells for each positive control specific to the cell line tested. The positive controls were tested at a maximal blocking and an approximate IC50 concentration. As positive control Lidocaine at concentrations of 30 and 1000 μM was used.
The solutions for recording Nav1.6 currents were as follows:
Amphotericin B was used to obtain electrical access to the cell interior at a final concentration of 200 μg/ml in internal recording solution.
State-dependent inhibition: Sodium channels when held at depolarized potential or long test pulse, the channels open and inactivate and then stay inactivated until the membrane potential is stepped back to hyperpolarized potentials, when the inactivated channels recover from inactivation into closed state.
Cells were held at −120 mV. […]
Assay Control Results Both the positive and vehicle control data associated with each cell line assayed are shown below as an example. […] In addition, the individual data of each well are shown on the graph as open symbols so that the variation about the mean value can be readily assessed. […]

Structure (SMILES) | Nav 1.6 blockage [1] | inhibition of the Nav 1.6 channel ([2]; at 5 μM) | significant inhibition of the Nav 1.6 channel [2]
CCNC(=O)C1CN(Cc2cccc(Oc3ccccc3)c2)CCO1 (stereo not shown) [Example 100, reference compound] | 1 to 5 µM |  | 
O=C(NCc1ccccn1)C1CN(Cc2cccc(Oc3ccccc3)c2)CCO1 (stereo not shown) [Example 105, reference compound] | 1 to 5 µM |  | 
O=C(C1CN(Cc2cccc(Oc3ccccc3)c2)CCO1)N1CCOCC1 (stereo not shown) [Example 106, reference compound] | > 5 µM | not showing any significant inhibition | do not show any significant inhibition
COCCNC(=O)C1CN(Cc2cccc(Oc3ccccc3)c2)CCO1 (stereo not shown) [Example 107, reference compound] | 1 to 5 µM |  | do not show any significant inhibition
